Experimental data as given in publication PMC4164784, “4E-BPs require non-canonical 4E-binding motifs and a lateral surface of eIF4E to repress translation” (Nature Communications, 2014).
These are yes or no findings as the source states them, for the method shown.

Target: T1, eIF4E (residues 69–248), purified (Drosophila melanogaster) (UniProt P48598)
T1 sequence: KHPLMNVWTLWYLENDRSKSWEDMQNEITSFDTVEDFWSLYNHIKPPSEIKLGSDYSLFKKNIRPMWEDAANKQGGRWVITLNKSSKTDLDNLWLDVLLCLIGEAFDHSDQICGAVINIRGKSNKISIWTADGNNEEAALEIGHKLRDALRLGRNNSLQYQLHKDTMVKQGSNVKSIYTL
Assay: ITC; VP-ITC, 20 °C; eIF4E (69–248, WT or mutant, 1–20 μM) in the cell, tenfold concentrated GB1-stabilized peptides titrated in; 20 mM Na-phosphate pH 7.0, 150 mM NaCl; one-site binding model; both purified

Substance | binding
4E-T L+NC peptide fused C-terminally to GB1 (Drosophila melanogaster) (domain or fragment) | no binding (tested: 200 μM peptide titrated in)
Thor L+NC peptide fused C-terminally to GB1 (Drosophila melanogaster) (domain or fragment) | no binding (tested: 200 μM peptide titrated in)
